Reference: paper PMC11213338
Results are given in words; binding and its absence hold for the method and conditions named. Binding can be weak; no strength is given. Tags and fused reporters may be left off the sequences shown.

Tests used:
[1] = target: GST-γb_(1-85) (barley stripe mosaic virus (ND18 strain)); assay: pull-down; GST pull-down: purified GST-tag protein with His-tag protein in 50 mM Tris-HCl pH 6.8, 500 mM NaCl, 1.5% glycerol, 0.6% Triton-X 100, 0.1% Tween 20, 3 h at 4°C; with or without 10 μg RNaseA, Zn^2+ 2-200 μM, 20 μM other divalent cations, or EDTA (200 μM in Fig 4D and 4E); blots with anti-GST or anti-His; both purified
[2] = target: GST-γb (barley stripe mosaic virus (ND18 strain)); assay: as above

B1: CP-His (protein, UniProt P04866 1-198)
chain: MPNVSLTAKGGGHYIEDQWDTQVVEAGVFDDWWVHVEAWNKFLDNLRGINFSVASSRSQVAEYLAALDRDLPADVDRRFAGARGQIGSPNYLPAPKFFRLDKRTIAELTRLSRLTDQPHNNRDIELNRAKRATTNPSPPAQAPSENLTLRDVQPLKDSALHYQYVLIDLQSARLPVYTRKTFERELALEWIIPDAEEA
In the case of B1, the binding [1] is reported as “binds” and the binding [2] is reported as “binds”.
